Results taken from paper PMC4465371.
No constants are given. Whether binding was seen depends on the method and setting. In cells and extracts the contact can be indirect. Some binding calls cover weakened binding; strength is not graded here. Where a sequence is shown, tags or fusion partners need not be part of it.

Experiments:
GST-LASP1 [1] = target: T1, GST-LASP1 (UniProt Q14847); experiment: pull-down; GST-LASP1 beads incubated 2 h with the 20,000xg supernatant of MaMel2 or NHEM homogenate (hypotonic buffer, 4°C lysis), washed three times with PBS, SDS-PAGE and Western blot; only the target purified
T1 sequence: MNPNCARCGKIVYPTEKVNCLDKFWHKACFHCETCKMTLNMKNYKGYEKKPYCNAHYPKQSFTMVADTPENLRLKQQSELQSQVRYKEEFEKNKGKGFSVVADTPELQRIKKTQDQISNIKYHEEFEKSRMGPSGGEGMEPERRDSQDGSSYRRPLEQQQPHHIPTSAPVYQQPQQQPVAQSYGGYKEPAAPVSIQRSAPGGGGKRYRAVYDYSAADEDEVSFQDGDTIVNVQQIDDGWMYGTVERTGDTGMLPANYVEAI

GST-LASP1 [2] = target: T1, GST-LASP1; experiment: pull-down; GST-LASP1 beads with UACC257 cells; data not shown; only the target purified

B1: zyxin (protein, UniProt Q15942 1-572)
chain: MAAPRPSPAISVSVSAPAFYAPQKKFGPVVAPKPKVNPFRPGDSEPPPAPGAQRAQMGRVGEIPPPPPEDFPLPPPPLAGDGDDAEGALGGAFPPPPPPIEESFPPAPLEEEIFPSPPPPPEEEGGPEAPIPPPPQPREKVSSIDLEIDSLSSLLDDMTKNDPFKARVSSGYVPPPVATPFSSKSSTKPAAGGTAPLPPWKSPSSSQPLPQVPAPAQSQTQFHVQPQPQPKPQVQLHVQSQTQPVSLANTQPRGPPASSPAPAPKFSPVTPKFTPVASKFSPGAPGGSGSQPNQKLGHPEALSAGTGSPQPPSFTYAQQREKPRVQEKQHPVPPPAQNQNQVRSPGAPGPLTLKEVEELEQLTQQLMQDMEHPQRQNVAVNELCGRCHQPLARAQPAVRALGQLFHIACFTCHQCAQQLQGQQFYSLEGAPYCEGCYTDTLEKCNTCGEPITDRMLRATGKAYHPHCFTCVVCARPLEGTSFIVDQANRPHCVPDYHKQYAPRCSVCSEPIMPEPGRDETVRVVALDKNFHMKCYKCEDCGKPLSIEADDNGCFPLDGHVLCRKCHTARAQT
Question: What does the source list for B1?
Answer: binding (GST-LASP1 [1]): binds; binding (GST-LASP1 [2]): binds
